# According to PMC4894380:
# Columns and labels:
# MqsA [1] = biological target: MqsA (UniProt Q46864); experiment: EMSA; details: 10 mM Tris-HCl pH 7.5, 50 mM KCl, 1 mM DTT, 1 ug poly(dI.dC), 30-50 fmol labeled probe, ambient temperature, 1 h, 6% gel, 0.5x TBE, recombinant protein, protein details: His6 tag removed by TEV cleavage
# MqsA [2] = biological target: MqsA (UniProt Q46864); experiment: competition with a labelled probe; details: excess unlabeled p-csgD reverses binding to labeled p-csgD; 10 mM Tris-HCl pH 7.5, 50 mM KCl, 1 mM DTT, 1 ug poly(dI.dC), 30-50 fmol labeled probe, ambient temperature, 1 h; 6% gel, 0.5x TBE; recombinant protein; protein details: His6 tag removed by TEV cleavage; probe letters rebuilt from the primers and the genome
sequence,measurement,setting,value
ACTTAATAAAACCTTATCACCAACATTTTA (double strand) [p-csgD mutated palindrome 30-mer],binding result,"MqsA [1]; 50-, 100- and 200-fold excess MqsA, binding drastically reduced, label: 3' biotin on both strands",binds more weakly
ATGTATGACCATGAATACTATGGACTTCATTAAACATGATGAAACCCCGCTTTTTTTATTGATCGCACACCTGACAGCTGCCTCTAAAATAGAAGCACCAGAAGTACTGACAGATGTTGCACTGCTGTGTGTAGTAATAAATCAGCCCTAAATGGGTAAAATATAAAACTAATGGATTACATCTGATTTCAATCTAGCCATTACAAATCTTAAATCAAGTGTTAAACATGTAACTAAATGTAACTCGTTATATTAAAATGTTAACCTTAAGGTTTTATTAAGTTTAGAAATGATAGAAAAGTTGTACATTTG (double strand) [p-csgD (312 bp)],binding result,"MqsA [1]; 200-fold excess MqsA, label: 3' biotin, probe letters rebuilt from the primers and the genome",binds
ATGTATGACCATGAATACTATGGACTTCATTAAACATGATGAAACCCCGCTTTTTTTATTGATCGCACACCTGACAGCTGCCTCTAAAATAGAAGCACCAGAAGTACTGACAGATGTTGCACTGCTGTGTGTAGTAATAAATCAGCCCTAAATGGGTAAAATATAAAACTAATGGATTACATCTGATTTCAATCTAGCCATTACAAATCTTAAATCAAGTGTTAAACATGTAACTAAATGTAACTCGTTATATTAAAATGTTAACCTTAAGGTTTTATTAAGTTTAGAAATGATAGAAAAGTTGTACATTTG (double strand) [p-csgD unlabeled (312 bp)],binding result,MqsA [2],binds

# For at least one entry, the source does not settle the construct or the ends of the probe. For part of these data: The comparison behind a weaker result is the experiment's own reference, which may not be listed here.
